Measured values: patent EP0103381B1, “Substituted anthra(1,9-cd)pyrazol-6(2H)-ones” (WARNER-LAMBERT COMPANY, priority 1982, dated 1984)
Several values for one entry are separate records, joined by “and”; a condition that tells them apart may be missing. Equal entries are not always repeated. At least one read-out could not be matched to a standard name with certainty.

System: lymphocytic leukemia P388
Assay: in vivo lymphocytic leukemia P388 test
Set-up: species or system mice
Conditions: two single doses four days apart
Experimental: The in vivo lymphocytic leukemia P388 test is carried out by the United States National Cancer Institute. The animals used are either male or female CD2F, mice. There are six to seven animals per test group. The tumor transplant is by intraperitoneal injection of dilute ascitic fluid containing cells of lymphocytic leukemia P388. The test compounds are administered intraperitoneally in two single doses with a four-day interval between doses at various dose levels following tumor inoculation. The animals are weighed and survivors are recorded on a regular basis for 30 days. A ratio of survival time for treated (T)/ control (C) animals is calculated. The criterion for efficacy is T/C x 100 > 125%. The positive control compound in this test is 1,4-dihydroxy-5,8-[bis[[2-[(2-hydroxyethyl)amino]-ethyl]amino]-9,10-anthracene- dione given at dosages ranging from 12.0 to 0.075 mg/kg. See Cancer Chemotherapy Reports, Part 3, 3, 1 (1972) for a comprehensive discussion of the protocol.

Row | Structure (SMILES) | T/C × 100 (Percent) (P388, Dose 6.25 mg/kg intraperitoneally, listed as 7,10-(OH)2, (CH2)2NH(CH2)2OH·2HCl, NH(CH2)3NH2, 6.25 mg/kg) | T/C × 100 (Percent) (P388, Dose 12.5 mg/kg intraperitoneally, listed as 7,10-(OH)2, (CH2)2NH(CH2)2OH·2HCl, NH(CH2)3NH2, 12.5 mg/kg) | T/C × 100 (Percent) (P388, Dose 25 mg/kg intraperitoneally, listed as 7,10-(OH)2, (CH2)2NH(CH2)2OH·2HCl, NH(CH2)3NH2, 25 mg/kg) | T/C × 100 (Percent) (P388, Dose 50 mg/kg intraperitoneally, listed as 7,10-(OH)2, (CH2)2NH(CH2)2OH·2HCl, NH(CH2)3NH2, 50 mg/kg) | T/C × 100 (Percent) (P388, Dose 6.25 mg/kg intraperitoneally, listed as 7-OH, CH2CH2NHCH2CH2OH ·2HCl, NHCH2CH2NHCH2CH2OH, 6.25 mg/kg) | T/C × 100 (Percent) (P388, Dose 12.5 mg/kg intraperitoneally) | T/C × 100 (Percent) (P388, Dose 25 mg/kg intraperitoneally, listed as 7-OH, CH2CH2NHCH2CH2OH ·2HCl, NHCH2CH2NHCH2CH2OH, 25 mg/kg)
1 | NCCCNc1ccc2c3c(nn2CCNCCO)-c2c(O)ccc(O)c2C(=O)c13 [Example 58, 5-[(3-Aminopropyl)amino]-7,10-dihydroxy-2-[2-[(2-hydroxyethyl)amino]ethyl]anthra[1,9-cd]pyrazol-6(2H)-one] | 172% | 190% | 207% and 250% | 272% | – | – | –
2 | O=C1c2c(O)cccc2-c2nn(CCNCCO)c3ccc(NCCNCCO)c1c23 [Example 83] | – | – | – | – | 183% and 134% | 142% | 285% and 184%
